Assay results taken from the supplement of paper PMC10849652.
This is one part of the list.

The chains behind the UniProt entries cited, without tags or fusion partners. Where a name states a change or a piece, a line headed by the entry shows the natural chain unless it says otherwise.
UniProt Q96LL9: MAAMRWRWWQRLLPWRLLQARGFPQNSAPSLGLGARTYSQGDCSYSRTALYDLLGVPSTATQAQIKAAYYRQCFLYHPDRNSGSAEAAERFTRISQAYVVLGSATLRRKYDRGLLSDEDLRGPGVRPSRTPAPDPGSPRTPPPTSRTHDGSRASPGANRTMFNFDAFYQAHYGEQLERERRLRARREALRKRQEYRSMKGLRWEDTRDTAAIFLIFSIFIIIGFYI
UniProt Q9UBS3: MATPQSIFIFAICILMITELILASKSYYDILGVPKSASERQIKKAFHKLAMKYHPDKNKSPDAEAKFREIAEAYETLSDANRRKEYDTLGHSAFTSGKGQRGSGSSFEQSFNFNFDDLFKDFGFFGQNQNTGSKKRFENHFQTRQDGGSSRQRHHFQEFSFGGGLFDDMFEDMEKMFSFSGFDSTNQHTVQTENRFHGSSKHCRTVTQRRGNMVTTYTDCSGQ
UniProt Q56P03: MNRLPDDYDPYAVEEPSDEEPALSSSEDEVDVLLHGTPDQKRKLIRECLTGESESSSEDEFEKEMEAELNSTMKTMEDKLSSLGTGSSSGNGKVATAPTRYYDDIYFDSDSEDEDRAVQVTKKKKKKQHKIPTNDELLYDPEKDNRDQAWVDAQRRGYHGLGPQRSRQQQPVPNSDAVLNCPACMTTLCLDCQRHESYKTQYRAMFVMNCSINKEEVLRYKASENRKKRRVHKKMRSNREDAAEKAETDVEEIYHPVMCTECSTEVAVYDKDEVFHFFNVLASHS
UniProt Q96BY6: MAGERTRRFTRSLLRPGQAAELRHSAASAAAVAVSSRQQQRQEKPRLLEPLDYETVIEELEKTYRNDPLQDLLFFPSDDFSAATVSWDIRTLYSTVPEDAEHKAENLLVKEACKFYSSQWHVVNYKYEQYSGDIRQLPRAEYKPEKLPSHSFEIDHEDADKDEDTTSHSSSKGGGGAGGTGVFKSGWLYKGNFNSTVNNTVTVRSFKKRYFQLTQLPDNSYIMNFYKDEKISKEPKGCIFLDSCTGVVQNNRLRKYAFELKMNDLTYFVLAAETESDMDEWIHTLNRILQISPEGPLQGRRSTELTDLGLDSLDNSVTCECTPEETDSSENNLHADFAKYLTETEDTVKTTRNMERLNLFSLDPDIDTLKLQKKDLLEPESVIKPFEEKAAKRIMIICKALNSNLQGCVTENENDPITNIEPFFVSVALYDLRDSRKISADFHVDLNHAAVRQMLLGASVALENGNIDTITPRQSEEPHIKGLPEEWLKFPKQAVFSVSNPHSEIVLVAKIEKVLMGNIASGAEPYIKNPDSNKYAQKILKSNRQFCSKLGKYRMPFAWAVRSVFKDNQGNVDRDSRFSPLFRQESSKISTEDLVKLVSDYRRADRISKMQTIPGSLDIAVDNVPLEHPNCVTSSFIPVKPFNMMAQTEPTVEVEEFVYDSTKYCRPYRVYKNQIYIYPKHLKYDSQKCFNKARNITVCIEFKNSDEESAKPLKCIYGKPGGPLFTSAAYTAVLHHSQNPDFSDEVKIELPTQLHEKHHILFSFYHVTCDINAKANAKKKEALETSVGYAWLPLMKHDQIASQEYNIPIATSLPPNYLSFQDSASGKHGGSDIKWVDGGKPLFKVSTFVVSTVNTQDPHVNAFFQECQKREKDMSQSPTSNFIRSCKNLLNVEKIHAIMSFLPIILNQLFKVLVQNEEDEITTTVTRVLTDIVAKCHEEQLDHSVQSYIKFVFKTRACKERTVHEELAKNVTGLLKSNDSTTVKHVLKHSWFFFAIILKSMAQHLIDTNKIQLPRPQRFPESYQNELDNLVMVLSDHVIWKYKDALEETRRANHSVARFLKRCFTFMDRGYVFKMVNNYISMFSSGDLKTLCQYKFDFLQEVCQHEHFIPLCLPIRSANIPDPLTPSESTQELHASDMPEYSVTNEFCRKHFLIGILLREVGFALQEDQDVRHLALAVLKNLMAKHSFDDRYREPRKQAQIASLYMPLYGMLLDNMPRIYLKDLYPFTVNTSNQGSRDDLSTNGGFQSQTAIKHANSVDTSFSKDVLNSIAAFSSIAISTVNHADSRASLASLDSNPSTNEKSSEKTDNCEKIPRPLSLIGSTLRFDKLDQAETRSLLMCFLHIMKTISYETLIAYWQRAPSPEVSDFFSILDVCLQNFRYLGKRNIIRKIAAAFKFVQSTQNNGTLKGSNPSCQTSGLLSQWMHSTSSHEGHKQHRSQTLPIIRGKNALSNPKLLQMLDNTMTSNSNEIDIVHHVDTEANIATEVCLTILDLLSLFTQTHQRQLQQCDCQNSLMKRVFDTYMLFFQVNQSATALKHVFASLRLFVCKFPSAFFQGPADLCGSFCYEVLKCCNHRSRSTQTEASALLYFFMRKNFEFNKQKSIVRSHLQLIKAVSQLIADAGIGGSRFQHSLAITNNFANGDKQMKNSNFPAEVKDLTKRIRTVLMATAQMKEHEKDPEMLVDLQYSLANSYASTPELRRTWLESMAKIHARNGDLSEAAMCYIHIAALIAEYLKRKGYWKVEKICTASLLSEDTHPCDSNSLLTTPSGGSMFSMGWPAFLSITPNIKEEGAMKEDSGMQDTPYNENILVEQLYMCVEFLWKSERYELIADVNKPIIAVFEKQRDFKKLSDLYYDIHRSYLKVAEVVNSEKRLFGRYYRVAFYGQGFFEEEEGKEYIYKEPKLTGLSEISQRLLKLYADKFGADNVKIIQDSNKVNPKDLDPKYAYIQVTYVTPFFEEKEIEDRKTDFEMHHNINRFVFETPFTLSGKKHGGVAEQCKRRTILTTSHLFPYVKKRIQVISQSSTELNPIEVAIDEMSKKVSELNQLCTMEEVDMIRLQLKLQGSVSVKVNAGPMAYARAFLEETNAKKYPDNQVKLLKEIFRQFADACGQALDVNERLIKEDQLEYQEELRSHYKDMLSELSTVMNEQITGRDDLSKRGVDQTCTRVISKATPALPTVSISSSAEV
UniProt Q9H8V3: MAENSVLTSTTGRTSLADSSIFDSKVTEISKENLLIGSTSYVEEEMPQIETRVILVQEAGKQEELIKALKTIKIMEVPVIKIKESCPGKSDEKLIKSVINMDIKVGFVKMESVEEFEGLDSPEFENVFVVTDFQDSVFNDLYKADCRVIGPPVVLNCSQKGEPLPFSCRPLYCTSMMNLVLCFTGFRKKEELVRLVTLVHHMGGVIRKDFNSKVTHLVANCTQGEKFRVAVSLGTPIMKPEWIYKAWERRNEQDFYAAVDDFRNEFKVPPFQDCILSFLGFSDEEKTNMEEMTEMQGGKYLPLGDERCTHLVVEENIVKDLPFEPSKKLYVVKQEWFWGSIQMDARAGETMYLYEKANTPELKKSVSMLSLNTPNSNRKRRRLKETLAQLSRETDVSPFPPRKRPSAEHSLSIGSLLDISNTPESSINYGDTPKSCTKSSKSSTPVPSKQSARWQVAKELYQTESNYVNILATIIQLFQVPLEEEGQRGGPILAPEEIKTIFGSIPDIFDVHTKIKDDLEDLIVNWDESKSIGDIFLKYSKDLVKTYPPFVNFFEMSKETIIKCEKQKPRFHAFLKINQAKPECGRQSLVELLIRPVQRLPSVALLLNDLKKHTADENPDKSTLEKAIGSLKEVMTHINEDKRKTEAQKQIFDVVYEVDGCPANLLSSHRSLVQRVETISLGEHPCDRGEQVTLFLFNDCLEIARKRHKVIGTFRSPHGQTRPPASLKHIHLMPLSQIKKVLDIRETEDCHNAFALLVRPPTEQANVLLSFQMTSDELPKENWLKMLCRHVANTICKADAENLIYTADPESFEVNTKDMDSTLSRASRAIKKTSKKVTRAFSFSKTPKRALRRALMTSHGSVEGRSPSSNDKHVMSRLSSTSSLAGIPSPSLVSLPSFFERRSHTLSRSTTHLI
UniProt Q9BVM2: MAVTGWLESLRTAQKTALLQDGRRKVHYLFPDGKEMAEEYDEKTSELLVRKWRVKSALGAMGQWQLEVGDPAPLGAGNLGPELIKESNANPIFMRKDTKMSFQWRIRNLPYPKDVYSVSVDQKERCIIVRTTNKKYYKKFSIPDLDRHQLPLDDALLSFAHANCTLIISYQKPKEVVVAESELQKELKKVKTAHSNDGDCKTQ
UniProt Q9NNZ3: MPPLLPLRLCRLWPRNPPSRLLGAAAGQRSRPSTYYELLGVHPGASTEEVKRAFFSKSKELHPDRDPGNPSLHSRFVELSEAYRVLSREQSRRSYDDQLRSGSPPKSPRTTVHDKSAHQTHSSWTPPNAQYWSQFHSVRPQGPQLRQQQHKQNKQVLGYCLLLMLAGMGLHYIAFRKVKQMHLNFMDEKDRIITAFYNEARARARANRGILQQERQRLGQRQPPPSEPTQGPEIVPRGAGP
UniProt Q99956: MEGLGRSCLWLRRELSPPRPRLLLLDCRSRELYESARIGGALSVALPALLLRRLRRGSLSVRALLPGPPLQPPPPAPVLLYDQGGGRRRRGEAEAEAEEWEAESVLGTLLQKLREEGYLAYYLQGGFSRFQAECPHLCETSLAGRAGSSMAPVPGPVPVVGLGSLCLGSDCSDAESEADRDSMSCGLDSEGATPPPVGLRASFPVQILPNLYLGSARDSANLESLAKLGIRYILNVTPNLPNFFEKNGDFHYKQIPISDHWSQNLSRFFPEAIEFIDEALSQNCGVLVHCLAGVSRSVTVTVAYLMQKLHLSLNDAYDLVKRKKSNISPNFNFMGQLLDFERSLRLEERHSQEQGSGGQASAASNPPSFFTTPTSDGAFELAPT
UniProt Q6UX65: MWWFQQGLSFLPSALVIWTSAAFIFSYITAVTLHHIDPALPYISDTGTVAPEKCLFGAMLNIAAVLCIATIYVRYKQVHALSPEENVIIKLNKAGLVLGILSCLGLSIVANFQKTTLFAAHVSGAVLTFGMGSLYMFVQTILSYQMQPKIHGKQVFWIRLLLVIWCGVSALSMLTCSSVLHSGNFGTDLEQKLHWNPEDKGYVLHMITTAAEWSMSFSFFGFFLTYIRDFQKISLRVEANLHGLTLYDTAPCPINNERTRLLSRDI
UniProt O14641: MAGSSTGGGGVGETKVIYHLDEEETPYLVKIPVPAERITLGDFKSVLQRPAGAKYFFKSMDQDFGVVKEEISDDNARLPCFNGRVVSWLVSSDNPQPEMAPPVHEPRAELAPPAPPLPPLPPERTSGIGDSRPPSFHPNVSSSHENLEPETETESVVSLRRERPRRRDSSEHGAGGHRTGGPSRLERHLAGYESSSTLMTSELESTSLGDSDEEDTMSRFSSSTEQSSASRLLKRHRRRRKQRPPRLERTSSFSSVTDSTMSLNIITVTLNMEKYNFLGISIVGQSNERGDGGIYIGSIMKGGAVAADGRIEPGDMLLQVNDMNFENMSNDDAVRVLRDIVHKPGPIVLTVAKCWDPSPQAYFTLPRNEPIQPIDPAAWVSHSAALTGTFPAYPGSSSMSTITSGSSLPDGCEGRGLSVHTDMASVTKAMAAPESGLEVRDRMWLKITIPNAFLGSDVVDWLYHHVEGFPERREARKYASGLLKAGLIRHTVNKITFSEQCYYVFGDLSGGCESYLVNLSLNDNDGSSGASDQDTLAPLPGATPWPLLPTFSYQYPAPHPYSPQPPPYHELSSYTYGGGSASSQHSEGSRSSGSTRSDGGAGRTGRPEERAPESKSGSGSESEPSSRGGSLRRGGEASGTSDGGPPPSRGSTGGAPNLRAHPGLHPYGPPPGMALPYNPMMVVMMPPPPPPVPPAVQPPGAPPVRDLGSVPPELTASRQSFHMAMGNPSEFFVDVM
UniProt P49184: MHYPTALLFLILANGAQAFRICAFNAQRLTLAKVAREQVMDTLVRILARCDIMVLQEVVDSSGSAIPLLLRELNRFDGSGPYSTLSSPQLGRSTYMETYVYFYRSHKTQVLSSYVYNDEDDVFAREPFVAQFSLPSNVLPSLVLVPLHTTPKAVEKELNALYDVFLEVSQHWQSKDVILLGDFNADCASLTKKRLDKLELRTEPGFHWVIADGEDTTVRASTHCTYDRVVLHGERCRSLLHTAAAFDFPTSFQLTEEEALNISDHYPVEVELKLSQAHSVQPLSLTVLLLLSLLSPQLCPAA
UniProt Q9H1X3: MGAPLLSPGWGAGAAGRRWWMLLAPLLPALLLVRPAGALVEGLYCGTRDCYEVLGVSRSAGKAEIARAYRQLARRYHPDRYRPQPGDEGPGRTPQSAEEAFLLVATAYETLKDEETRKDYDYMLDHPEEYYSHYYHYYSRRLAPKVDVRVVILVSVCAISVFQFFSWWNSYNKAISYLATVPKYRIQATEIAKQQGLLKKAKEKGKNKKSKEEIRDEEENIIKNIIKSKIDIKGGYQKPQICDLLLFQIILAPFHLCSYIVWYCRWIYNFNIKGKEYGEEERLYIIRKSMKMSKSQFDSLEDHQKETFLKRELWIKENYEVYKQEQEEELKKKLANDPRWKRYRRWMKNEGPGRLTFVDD
UniProt Q9Y5T4: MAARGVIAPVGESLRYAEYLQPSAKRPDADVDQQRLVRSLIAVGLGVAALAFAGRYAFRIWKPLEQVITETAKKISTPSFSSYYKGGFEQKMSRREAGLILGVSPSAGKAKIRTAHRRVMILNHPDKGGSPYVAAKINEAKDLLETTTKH

Columns and labels:
Experiment in all cases: log2 fold change, soluble protein after heating vs DMSO (PISA); higher = thermal stabilisation; K562 cells, 10 uM, 30 min; active = over 0.2 and 3.5 SD of the protein, either way, in both replicates (recomputed)
[1] = compound: NC(=O)c1cnc(N[C@@H]2CCCC[C@@H]2N)nc1Nc1cccc(-n2nccn2)c1
In short: (§1)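 Soluble protein was defined as the supernatant after 21,000xg for 90 min. It came from K562 cells at 2×10^6 cells/mL given 10 μM compound for 30 min, heated in aliquots for 3 min across 48°C-58°C, pooled, and extracted in PBS with 0.5% NP-40 at 4°C, and was quantified by TMTpro 16plex LC-MS/MS with equalised channel sums. Thermal stability against control samples, from duplicates, is reported as log2 fold change.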

[2] = compound: Cc1cccc(CC(=O)N2CCc3c2ccc(-c2cn(C)c4ncnc(N)c24)c3F)n1
In short: as §1

[3] = compound: Cc1cn(-c2cc(NC(=O)c3ccc(C)c(Nc4nccc(-c5cccnc5)n4)c3)cc(C(F)(F)F)c2)cn1 [nilotinib]
In short: as §1

[4] = compound: Cc1nc(Nc2n[nH]c3c2CN(C(=O)N[C@H](CN(C)C)c2ccccc2)C3(C)C)c2sccc2n1
In short: as §1

[5] = compound: Cc1nc(Nc2ncc(C(=O)Nc3c(C)cccc3Cl)s2)cc(N2CCN(CCO)CC2)n1 [dasatinib]
In short: as §1

[6] = compound: Cc1ncc(-c2ccnc(Nc3ccc(S(C)(=O)=O)cc3)n2)n1C(C)C
In short: as §1

[7] = compound: Cn1cc(-c2ccc3c(c2)CCN3C(=O)Cc2cccc(C(F)(F)F)c2)c2c(N)ncnc21
In short: as §1

[8] = compound: Cn1cc(-c2ccc3nnc(C(F)(F)c4ccc5ncccc5c4)n3n2)cn1
In short: as §1

[9] = compound: NC(=O)Nc1cc(-c2cccc(F)c2)sc1C(=O)N[C@H]1CCCNC1
In short: as §1

[10] = compound: NCC(=O)Nc1ccc(-n2nc(C(F)(F)F)cc2-c2ccc3c(ccc4ccccc43)c2)cc1
In short: as §1

[11] = compound: Nc1ccccc1NC(=O)c1ccc(CNC(=O)OCc2cccnc2)cc1 [entinostat]
In short: as §1

[12] = compound: O=C(CCCCCCC(=O)Nc1ccccc1)NO [vorinostat]
In short: as §1

[13] = compound: O=C(CCCCCCNC(=O)c1cnc(N(c2ccccc2)c2ccccc2Cl)nc1)NO [citarinostat]
In short: as §1

[14] = compound: O=C1NC(=O)C(c2cnc3ccccn23)=C1c1cn2c3c(cc(F)cc13)CN(C(=O)N1CCCCC1)CC2
In short: as §1

[15] = compound: c1cc(OCCN2CCCCC2)cc(-c2n[nH]c3ccc(-c4nnc[nH]4)cc23)c1
In short: as §1

[16] = compound: Cn1cncc1[C@@](N)(c1ccc(Cl)cc1)c1ccc2c(c1)c(-c1cccc(Cl)c1)cc(=O)n2C [tipifarnib]
In short: as §1

[17] = compound: FC(F)(F)c1ccc(/C=C/c2nc(COc3ccc(CCCCn4ccnn4)cc3)co2)cc1 [mubritinib]
In short: as §1

[18] = compound: NC1(c2ccc(-c3nc4ccn5c(=O)[nH]nc5c4cc3-c3ccccc3)cc2)CCC1
In short: as §1

[19] = compound: O=C(O)c1ccc2c(c1)nc(Nc1cccc(Cl)c1)c1ccncc12 [silmitasertib]
In short: as §1

[20] = compound: Cc1ccc(NC(=O)c2ccc(CN3CC[C@H](N(C)C)C3)c(C(F)(F)F)c2)cc1Nc1nccc(-c2cncnc2)n1 [bafetinib]
In short: as §1

Measured: log2 fold change

DNAJC30 (UniProt Q96LL9)
inactive: [1] 0.067

DONSON (UniProt Q9NYP3)
inactive: [2] -0.104 | [3] 0.121 | [4] -0.215 | [5] 0.053 | [6] -0.614 | [7] -0.048 | [8] -0.378 | [9] 0.136 | [1] -0.073 | [10] -0.042 | [11] -0.021 | [12] -0.103 | [13] 0 | [14] 0.118 | [15] -0.074

DRAP1 (UniProt E9PQX9)
inactive: [16] 0.094 | [17] 0.274 | [1] -0.012 | [18] 0.104 | [19] -0.085

DNAJB9 (UniProt Q9UBS3)
inactive: [2] -0.213 | [12] 0.109

EAPP (UniProt Q56P03)
inactive: [2] -0.069 | [3] -0.087 | [4] 0.123 | [5] -0.122 | [6] 0.059 | [7] -0.138 | [8] -0.228 | [16] 0.03 | [17] 0.07 | [9] 0.137 | [1] 0.047 | [18] 0.141 | [10] 0.038 | [11] -0.046 | [12] 0.029 | [13] -0.143 | [19] 0.089 | [15] 0.111

DNPH1 (UniProt H0Y8X4)
inactive: [3] 0.127 | [4] 0.264 | [5] 0.14 | [6] -0.105 | [7] 0.014 | [8] -0.349 | [16] 0.177 | [17] 0.203 | [1] -0.023 | [18] -0.048 | [19] 0.113

DOCK2 (UniProt Q92608)
inactive: [8] 0.046

DNAJB1 (UniProt M0R128)
inactive: [20] -0.252 | [7] -0.022 | [10] -0.151

DOCK10 (UniProt Q96BY6)
inactive: [3] -0.336 | [4] 0.016 | [6] -0.15 | [8] 0 | [17] 0.114 | [18] -0.743 | [10] 0.149 | [13] 0.024 | [19] 0.102 | [15] -0.284

DYNC2LI1 isoform 2 (UniProt Q8TCX1)
inactive: [7] 0.183 | [8] -0.044 | [16] -0.081 | [17] -0.139 | [9] -0.015 | [18] 0.059 | [10] -0.229 | [11] 0.033 | [19] -0.038 | [14] 0.176

DNPEP (UniProt B9ZVU2)
inactive: [2] 0.013 | [5] -0.027 | [7] -0.047 | [16] -0.098 | [17] -0.005 | [9] 0.093 | [1] 0.003 | [18] 0.03 | [10] 0.154 | [11] -0.033 | [12] 0.011 | [13] 0.012 | [19] -0.048 | [15] 0.022

ECT2 isoform 3 (UniProt Q9H8V3)
inactive: [8] 0.08 | [9] 0.246 | [11] 0.188 | [13] 0.087 | [14] -0.258 | [15] -0.146

DYNC1I1 (UniProt O14576)
inactive: [8] 0 | [16] 0.007 | [10] 0.016 | [14] -0.044

DPCD (UniProt Q9BVM2)
inactive: [2] 0.06 | [1] -0.224 | [10] -0.026 | [12] -0.144

DUS1L (UniProt Q6P1R4)
inactive: [2] 0 | [7] -0.095 | [8] -0.077 | [17] -0.223 | [18] -0.132 | [12] -0.007 | [19] 0.435

DNAJC4 (UniProt Q9NNZ3)
inactive: [8] -0.043 | [16] 0.192

Taken from the listing (two entries):
DPCD (UniProt Q9BVM2)
inactive: [2] 0.06 | [1] -0.224 | [10] -0.026 | [12] -0.144

DUS1L (UniProt Q6P1R4)
inactive: [2] 0 | [7] -0.095 | [8] -0.077 | [17] -0.223 | [18] -0.132 | [12] -0.007 | [19] 0.435

Further records follow.

DNAJB14 (UniProt H7C494)
inactive: [2] -0.076 | [3] -0.001 | [4] 0.04 | [5] -0.18 | [6] 0.052 | [16] 0.14 | [17] 0.154 | [18] -0.046 | [10] 0.006 | [12] 0.074 | [19] -0.102

DNAJC14 (UniProt Q6Y2X3)
inactive: [17] -0.322 | [18] -0.036 | [19] -0.116

DUSP12 (UniProt V9GYV5)
inactive: [9] 0.142 | [10] -0.08 | [11] -0.149 | [14] 0.066

DPYSL3 isoform 2 (UniProt Q14195)
inactive: [2] 0 | [5] -0.443 | [16] 0.043 | [10] -0.068 | [12] 0.457

DNAJB2 (UniProt P25686)
inactive: [2] 0.159 | [5] -0.129 | [8] -0.037 | [16] 0.052 | [12] -0.018 | [13] 0.045 | [14] 0.042 | [15] -0.041

DUSP9 (UniProt Q99956)
inactive: [3] -0.36 | [4] 0.024 | [5] -0.246 | [6] -0.03 | [8] -0.091 | [9] -0.128 | [10] -0.147 | [11] 0.067 | [14] 0.137

DTD2 (UniProt Q96FN9)
inactive: [2] -0.194 | [3] 0.028 | [4] -0.103 | [5] -0.024 | [6] -0.002 | [7] 0.034 | [16] 0.267 | [9] -0.03 | [1] -0.001 | [10] 0.029 | [11] -0.024 | [12] 0.052 | [14] -0.187

DRAM2 (UniProt Q6UX65)
inactive: [7] -0.043 | [16] 0.25 | [17] 0.044 | [9] 0.042 | [1] -0.007 | [18] -0.311 | [10] -0.163 | [11] -0.008 | [13] 0.133 | [19] 0.104 | [14] 0.023 | [15] -0.138

E4F1 (UniProt H3BN24)
inactive: [8] -0.104

DVL2 (UniProt O14641)
inactive: [2] 0.045 | [16] 0.217 | [9] -0.037 | [1] -0.123 | [11] 0.053 | [12] 0 | [13] -0.049 | [14] 0.216 | [15] -0.255

DNASE1L1 (UniProt P49184)
inactive: [1] -0.067

DOP1A (UniProt Q5JWR5)
inactive: [20] -0.091 | [17] 0.127 | [18] 0.106 | [10] -0.051 | [19] -0.056 | [14] 0

DNM1 (UniProt Q05193)
inactive: [2] 0.048 | [10] 0.058 | [12] 0.029 | [14] -0.448

DNAJC25 (UniProt Q9H1X3)
inactive: [20] -0.107 | [16] -0.026

DOCK11, A0A0J9YW64
inactive: [17] 0.064 | [9] -0.075 | [18] -0.112 | [11] -0.053 | [13] 0.006 | [19] 0.159 | [15] -0.077

DNMT3B (UniProt Q9UBC3)
inactive: [2] 0.068 | [5] -0.024 | [12] 0.517

DNAJC15 (UniProt Q9Y5T4)
inactive: [16] 0.385 | [9] -0.002 | [11] 0.02
